Results are given in words; binding and its absence hold for the method and conditions named. For some assays here: Binding seen in cells or lysates may run through a third protein. Some results given as binding are weak or reduced against the parent protein; the word gives no strength. For some assays here: Where a sequence is shown, tags or fusion partners need not be part of it.

By UniProt entry, the sequences of proteins in these tests, tags left out. Residues count along the entry.
UniProt Q05320, residues 33-676: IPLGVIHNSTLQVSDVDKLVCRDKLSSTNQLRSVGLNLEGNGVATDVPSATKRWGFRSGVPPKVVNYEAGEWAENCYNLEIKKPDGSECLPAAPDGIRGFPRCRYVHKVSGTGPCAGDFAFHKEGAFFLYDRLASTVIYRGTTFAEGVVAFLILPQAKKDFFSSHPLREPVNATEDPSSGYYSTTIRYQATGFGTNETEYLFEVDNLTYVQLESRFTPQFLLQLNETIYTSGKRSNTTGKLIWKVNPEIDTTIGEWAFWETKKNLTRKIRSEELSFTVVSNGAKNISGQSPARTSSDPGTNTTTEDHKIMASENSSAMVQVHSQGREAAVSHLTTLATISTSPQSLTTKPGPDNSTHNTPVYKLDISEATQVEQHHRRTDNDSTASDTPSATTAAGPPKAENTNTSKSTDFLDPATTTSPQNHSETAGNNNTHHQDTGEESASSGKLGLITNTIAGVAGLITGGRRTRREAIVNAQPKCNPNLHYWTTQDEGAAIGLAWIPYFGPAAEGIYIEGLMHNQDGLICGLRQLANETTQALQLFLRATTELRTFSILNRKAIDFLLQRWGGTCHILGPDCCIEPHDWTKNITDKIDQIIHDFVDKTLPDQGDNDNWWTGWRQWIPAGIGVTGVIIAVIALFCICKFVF
UniProt Q05128: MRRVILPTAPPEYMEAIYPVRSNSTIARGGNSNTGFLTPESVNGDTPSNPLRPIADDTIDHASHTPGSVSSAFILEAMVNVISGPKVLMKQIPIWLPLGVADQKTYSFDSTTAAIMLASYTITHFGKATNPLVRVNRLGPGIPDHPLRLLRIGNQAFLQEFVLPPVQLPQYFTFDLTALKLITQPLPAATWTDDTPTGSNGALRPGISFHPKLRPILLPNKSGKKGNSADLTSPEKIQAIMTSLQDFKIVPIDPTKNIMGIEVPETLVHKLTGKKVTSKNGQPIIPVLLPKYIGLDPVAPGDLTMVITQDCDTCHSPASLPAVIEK

Assay [1] addresses Ebola virus glycoprotein GP (Ebola virus (EBOV)) (UniProt Q05320). Nature of the assay: proximity ligation.
Assay [2] concerns the target Maltose binding protein (MBP)-tagged VP40 (Ebola virus (EBOV)) (UniProt Q05128). Description: pull-down; both purified.

B1: macrophage-capping protein (CAPG) (protein, UniProt P40121-1 1-348)
chain: MYTAIPQSGSPFPGSVQDPGLHVWRVEKLKPVPVAQENQGVFFSGDSYLVLHNGPEEVSHLHLWIGQQSSRDEQGACAVLAVHLNTLLGERPVQHREVQGNESDLFMSYFPRGLKYQEGGVESAFHKTSTGAPAAIKKLYQVKGKKNIRATERALNWDSFNTGDCFILDLGQNIFAWCGGKSNILERNKARDLALAIRDSERQGKAQVEIVTDGEEPAEMIQVLGPKPALKEGNPEEDLTADKANAQAAALYKVSDATGQMNLTKVADSSPFALELLISDDCFVLDNGLCGKIYIWKGRKANEKERQAALQVAEGFISRMQYAPNTQVEILPQGHESPIFKQFFKDWK
For the molecule B1, in assay [1], the binding entry is reported as “binds”.

B2: His6-tagged CAPG (protein, UniProt P40121-1 1-348)
chain: B1 chain
Turning to B2, the binding result in assay [2] is recorded as “no binding (tested: 1 mg/mL)”.

(Values after article PMC9505868.)
